Experimental findings from publication PMC3310817, “Liver X Receptors Regulate the Transcriptional Activity of the Glucocorticoid Receptor: Implications for the Carbohydrate Metabolism” are described below.

The target in series [1] is T1, glucocorticoid receptor (GR, nuclear extract of HeLa cells) (Homo sapiens) (UniProt P04150).
T1 sequence (looked up, limits assumed): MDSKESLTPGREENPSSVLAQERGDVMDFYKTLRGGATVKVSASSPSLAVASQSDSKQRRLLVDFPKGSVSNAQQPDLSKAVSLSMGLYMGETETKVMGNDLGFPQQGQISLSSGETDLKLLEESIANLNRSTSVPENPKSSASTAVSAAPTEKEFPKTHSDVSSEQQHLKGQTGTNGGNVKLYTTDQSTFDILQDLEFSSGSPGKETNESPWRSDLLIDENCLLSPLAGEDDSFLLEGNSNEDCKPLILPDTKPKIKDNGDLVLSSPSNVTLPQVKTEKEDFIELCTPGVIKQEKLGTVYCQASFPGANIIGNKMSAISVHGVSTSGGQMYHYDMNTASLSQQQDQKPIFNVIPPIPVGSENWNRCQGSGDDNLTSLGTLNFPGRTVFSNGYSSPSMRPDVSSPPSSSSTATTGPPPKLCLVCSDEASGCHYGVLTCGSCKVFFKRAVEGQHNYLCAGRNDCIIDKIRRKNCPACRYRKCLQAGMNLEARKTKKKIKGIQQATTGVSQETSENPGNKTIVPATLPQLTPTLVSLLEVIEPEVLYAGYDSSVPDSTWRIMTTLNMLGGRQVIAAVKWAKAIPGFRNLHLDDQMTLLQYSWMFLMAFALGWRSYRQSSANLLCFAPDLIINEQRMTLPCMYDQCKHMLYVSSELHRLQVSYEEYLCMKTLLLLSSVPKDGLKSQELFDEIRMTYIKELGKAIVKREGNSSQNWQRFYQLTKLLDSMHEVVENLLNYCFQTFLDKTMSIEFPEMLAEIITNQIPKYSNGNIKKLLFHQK
Kind of series: competition with a labelled probe. The following applies: dexamethasone, EMSA: 10 mM HEPES pH 8.0, 0.1 mM EDTA, 2 mM DTT, 50 mM NaCl, 5 mM MgCl2, 50 mM KCl, 4 mM spermidine, 4% Ficoll, 1 ug poly(dI-dC), preincubation 10 min 4 C, protein in an extract.

Series [2] deals with T1, glucocorticoid receptor (GR, nuclear extract of HeLa cells) (Homo sapiens). Kind of series: EMSA. To be noted: EMSA: 10 mM HEPES pH 8.0, 0.1 mM EDTA, 2 mM DTT, 50 mM NaCl, 5 mM MgCl2, 50 mM KCl, 4 mM spermidine, 4% Ficoll, 1 ug poly(dI-dC), preincubation 10 min 4 C, protein in an extract, label: 32P. On the technique in general: In EMSA bound probe runs differently from free probe, usually more slowly.

Series [3] has the same target. Kind of series: EMSA supershift. The following applies: dexamethasone, complex A; EMSA: 10 mM HEPES pH 8.0, 0.1 mM EDTA, 2 mM DTT, 50 mM NaCl, 5 mM MgCl2, 50 mM KCl, 4 mM spermidine, 4% Ficoll, 1 ug poly(dI-dC); preincubation 10 min 4 C; protein in an extract; label: 32P.

The exact form of at least one protein or probe is not confirmed. Results from cells or extracts need not show a direct contact. For part of these data: Negatives hold for the conditions tested. Tags and fusion partners may be left off the protein sequences shown. For part of these data: Weaker means in comparison with the reference protein, sequence or condition of that experiment.

For the sequence “AGCTACGCGAGATGACGATAGCT / AGCTATCGTCGTCTCGCGTAGCT [Classic GRE mut]”, the binding result in series [1] (50-fold excess cold vs classic GRE wt probe, complex A) was “no binding”.

With “AGCTGGTACAAACTGTTCTAGCT (double strand) [Classic GRE wt]”, the binding result in series [2] (dexamethasone + GW3965, with or without LXRα/RXRα) is on record as “binds more weakly”; in series [2] (dexamethasone + recombinant LXRα/RXRα (dose-dependent decrease of complex A)), “binds more weakly”; in series [3], “binds”; in series [1] (50-fold excess cold abolishes complex A, label: 32P) it was “binds”.

Take “GCACTACGCGGAAGGACTACCAAGTTAATAATT (double strand) [G6Pase GRE mut]”: in series [1] (50-fold excess cold vs G6Pase GRE wt probe, complex A), the binding result was “no binding”.

As for “GCACTGTCAAGCAGTGTGCCCAAGTTAATAATT (double strand) [G6Pase GRE wt]”, the binding result was “binds more weakly” in series [2] (dexamethasone + recombinant LXRα/RXRα); “binds” in series [2] (dexamethasone, complex A); “binds” in series [1] (50-fold excess cold vs classic GRE wt probe abolishes complex A, label: 32P).
